Experimental data as given in paper PMC5112231.
These are yes or no findings as the source states them, for the method shown. Some results given as binding are weak or reduced against the parent protein; the word gives no strength.

Sequences of proteins named here, by UniProt entry; tags and fusion partners are left off.
UniProt P0A1N2: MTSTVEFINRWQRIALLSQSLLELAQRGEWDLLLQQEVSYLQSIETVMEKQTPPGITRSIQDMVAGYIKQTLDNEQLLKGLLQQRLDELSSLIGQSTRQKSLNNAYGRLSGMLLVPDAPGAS
UniProt P17424: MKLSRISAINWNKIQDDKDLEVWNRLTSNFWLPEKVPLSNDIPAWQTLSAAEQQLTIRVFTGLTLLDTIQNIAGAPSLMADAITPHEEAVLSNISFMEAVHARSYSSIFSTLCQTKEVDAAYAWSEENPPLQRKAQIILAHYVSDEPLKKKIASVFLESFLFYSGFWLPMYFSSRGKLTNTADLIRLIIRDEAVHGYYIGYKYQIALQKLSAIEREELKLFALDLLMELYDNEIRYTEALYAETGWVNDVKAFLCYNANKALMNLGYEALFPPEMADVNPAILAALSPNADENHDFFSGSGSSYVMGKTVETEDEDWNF

B1: Lrp (leucine-responsive regulatory protein), full-length gene in pKT25 (protein, UniProt P0A2S0 1-164)
chain: MVDSKKRPGKDLDRIDRNILNELQKDGRISNVELSKRVGLSPTPCLERVRRLERQGFIQGYTALLNPHYLDASLLVFVEITLNRGAPDVFEQFNAAVQKLEEIQECHLVSGDFDYLLKTRVPDMSAYRKLLGETLLRLPGVNDTRTYVVMEEVKQSNRLVIKTR
B2: RhaR, full-length gene in pKT25 (protein, UniProt P40865 1-282)
chain: MANQLILLKKDFFTDEQQAVTVADRYPQDVFAEHTHEFCELVMVWRGNGLHVLNERPYRITRGDLFYIRAEDKHSYTSVNDLVLQNIIYCPERLKLNVNWQAMIPGFQGAQWHPHWRLGSMGMNQARQVINQLEHESNGRDPLANEMAELLFGQLVMTLKRHRYATDDLPATSRETLLDKLITALANSLECPFALDAFCQQEQCSERVLRQQFRAQTGMTINQYLRQVRICHAQYLLQHSPLMISEISMQCGFEDSNYFSVVFTRETGMTPSQWRHLSNQSD

The molecules below were run against T1, acetyltransferase Pat (protein acetyltransferase), pUT18-pat bait (Salmonella Typhimurium) (UniProt Q8ZMX2) (assay: two-hybrid; bacterial adenylate cyclase two-hybrid, pairwise: full-length genes in pKT25 co-transformed with pUT18-pat into E. coli BTH101, spotted onto screening medium (X-gal, IPTG); blue colonies mean interaction).
T1 sequence: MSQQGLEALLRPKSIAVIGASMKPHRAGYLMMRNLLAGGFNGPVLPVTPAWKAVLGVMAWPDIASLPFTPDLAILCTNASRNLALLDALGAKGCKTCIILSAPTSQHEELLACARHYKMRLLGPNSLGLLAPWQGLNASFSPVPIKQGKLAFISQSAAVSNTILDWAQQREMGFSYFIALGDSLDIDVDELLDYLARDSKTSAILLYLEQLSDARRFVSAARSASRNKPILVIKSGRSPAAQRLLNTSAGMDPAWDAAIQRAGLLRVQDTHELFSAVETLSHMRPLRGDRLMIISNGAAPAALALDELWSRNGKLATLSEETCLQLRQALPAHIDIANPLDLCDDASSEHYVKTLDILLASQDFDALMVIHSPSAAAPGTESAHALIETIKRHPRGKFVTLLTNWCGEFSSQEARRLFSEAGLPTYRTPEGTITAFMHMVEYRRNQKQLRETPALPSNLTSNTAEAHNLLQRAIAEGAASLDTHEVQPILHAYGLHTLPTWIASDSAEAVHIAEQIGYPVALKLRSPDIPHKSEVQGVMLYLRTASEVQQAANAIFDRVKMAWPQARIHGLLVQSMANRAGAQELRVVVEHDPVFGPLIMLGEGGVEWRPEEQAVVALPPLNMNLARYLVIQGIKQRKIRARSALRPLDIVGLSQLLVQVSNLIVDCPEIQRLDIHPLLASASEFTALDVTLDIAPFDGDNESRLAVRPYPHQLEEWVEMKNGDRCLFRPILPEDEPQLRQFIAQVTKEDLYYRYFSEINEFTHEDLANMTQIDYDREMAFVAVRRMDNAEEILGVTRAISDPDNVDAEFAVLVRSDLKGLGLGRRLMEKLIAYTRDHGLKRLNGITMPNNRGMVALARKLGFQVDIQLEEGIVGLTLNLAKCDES

Molecule | binding
FliT, full-length gene in pKT25 (from UniProt P0A1N2 1-122) | binds
NrdF, full-length gene in pKT25 (from UniProt P17424 1-319) | binds
B1 | binds
B2 | binds
